# Some of the results follow.
# Legend:
# Assay in all cases: glycan array binding signal (z-score within array); higher = stronger binding
# Conditions in all cases: glycan notation: IUPAC condensed, linker removed
# [1] = biological target: Gal(b1-4)GlcNAc(b1-3)Gal(b1-4)GlcNAc(b1-3)Gal(b1-4)GlcNAc(b1-3)Gal(b1-4)GlcNAc(b1-2)[Gal(b1-4)GlcNAc(b1-3)Gal(b1-4)GlcNAc(b1-3)Gal(b1-4)GlcNAc(b1-3)Gal(b1-4)GlcNAc(b1-6)]Man(a1-6)[Gal(b1-4)GlcNAc(b1-3)Gal(b1-4)GlcNAc(b1-3)Gal(b1-4)GlcNAc(b1-3)Gal(b1-4)GlcNAc(b1-2)Man(a1-3)]Man(b1-4)GlcNAc(b1-4)[Fuc(a1-6)]GlcNAc
# Procedure, shortened: (§1)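 Glycan array data were curated from 3228 arrays in the Consortium for Functional Glycomics database and kept only where the protein sequence was available. Glycan names were converted to IUPAC-condensed notation, and columns mapping to the same glycan were averaged. The binding signal is a within-array Z-score, averaged across arrays of the same protein sequence at different concentrations or buffers and across linkers. Negative Z-scores can be read as non-binding.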
# [2] = biological target: Gal(b1-4)GlcNAc(b1-3)Gal(b1-4)GlcNAc(b1-3)Gal(b1-4)GlcNAc(b1-3)Gal(b1-4)GlcNAc(b1-3)Gal(b1-4)GlcNAc(b1-2)Man(a1-3)[Gal(b1-4)GlcNAc(b1-3)Gal(b1-4)GlcNAc(b1-3)Gal(b1-4)GlcNAc(b1-3)Gal(b1-4)GlcNAc(b1-3)Gal(b1-4)GlcNAc(b1-2)Man(a1-6)]Man(b1-4)GlcNAc(b1-4)GlcNAc
# Procedure, shortened: as §1
# [3] = biological target: Gal(b1-4)GlcNAc(b1-3)Gal(b1-4)GlcNAc(b1-3)Gal(b1-4)GlcNAc(b1-3)Gal(b1-4)GlcNAc(b1-3)Gal(b1-4)GlcNAc(b1-2)Man(a1-3)[Gal(b1-4)GlcNAc(b1-3)Gal(b1-4)GlcNAc(b1-3)Gal(b1-4)GlcNAc(b1-3)Gal(b1-4)GlcNAc(b1-3)Gal(b1-4)GlcNAc(b1-2)Man(a1-6)]Man(b1-4)GlcNAc(b1-4)[Fuc(a1-6)]GlcNAc
# Procedure, shortened: as §1
# [4] = biological target: Gal(b1-4)GlcNAc(b1-3)Gal(b1-4)GlcNAc(b1-3)Gal(b1-4)GlcNAc(b1-3)Gal(b1-4)GlcNAc(b1-3)Gal(b1-4)GlcNAc(b1-2)[Gal(b1-4)GlcNAc(b1-3)Gal(b1-4)GlcNAc(b1-3)Gal(b1-4)GlcNAc(b1-3)Gal(b1-4)GlcNAc(b1-3)Gal(b1-4)GlcNAc(b1-6)]Man(a1-6)[Gal(b1-4)GlcNAc(b1-3)Gal(b1-4)GlcNAc(b1-3)Gal(b1-4)GlcNAc(b1-3)Gal(b1-4)GlcNAc(b1-3)Gal(b1-4)GlcNAc(b1-2)Man(a1-3)]Man(b1-4)GlcNAc(b1-4)[Fuc(a1-6)]GlcNAc
# Procedure, shortened: as §1
# [5] = biological target: Gal(b1-4)GlcNAc(b1-3)Gal(b1-4)GlcNAc(b1-3)Gal(b1-4)GlcNAc(b1-3)Gal(b1-4)GlcNAc(b1-3)Gal(b1-4)GlcNAc(b1-3)Gal(b1-4)GlcNAc(b1-2)Man(a1-3)[Gal(b1-4)GlcNAc(b1-3)Gal(b1-4)GlcNAc(b1-3)Gal(b1-4)GlcNAc(b1-3)Gal(b1-4)GlcNAc(b1-3)Gal(b1-4)GlcNAc(b1-3)Gal(b1-4)GlcNAc(b1-2)Man(a1-6)]Man(b1-4)GlcNAc(b1-4)GlcNAc
# Procedure, shortened: as §1
# [6] = biological target: Gal(b1-4)GlcNAc(b1-3)Gal(b1-4)GlcNAc(b1-3)GalNAc
# Procedure, shortened: as §1
# [7] = biological target: Gal(b1-4)GlcNAc(b1-3)Gal(b1-4)GlcNAc(b1-3)[Gal(b1-4)GlcNAc(b1-3)Gal(b1-4)GlcNAc(b1-6)]GalNAc
# Procedure, shortened: as §1
# [8] = biological target: Gal(b1-4)GlcNAc(b1-3)Gal(b1-4)GlcNAc(b1-6)[Gal(b1-3)]GalNAc
# Procedure, shortened: as §1
# [9] = biological target: Gal(b1-4)GlcNAc(b1-3)Gal(b1-4)[Fuc(a1-3)]GlcNAc(b1-3)Gal(b1-4)[Fuc(a1-3)]GlcNAc
# Procedure, shortened: as §1
# [10] = biological target: Gal(b1-4)GlcNAc(b1-3)GalNAc
# Procedure, shortened: as §1
# [11] = biological target: Gal(b1-4)GlcNAc(b1-3)[Fuc(a1-3)GlcNAc(b1-6)]Gal(b1-4)Glc
# Procedure, shortened: as §1
# [12] = biological target: Gal(b1-4)GlcNAc(b1-3)[Gal(b1-4)GlcNAc(b1-6)]Gal(b1-4)GlcNAc
# Procedure, shortened: as §1
# [13] = biological target: Gal(b1-4)GlcNAc(b1-3)[GlcNAc(b1-6)]Gal(b1-4)GlcNAc
# Procedure, shortened: as §1
# [14] = biological target: Gal(b1-4)GlcNAc(b1-6)Gal(b1-4)GlcNAc
# Procedure, shortened: as §1
# [15] = biological target: Gal(b1-4)GlcNAc(b1-6)GalNAc
# Procedure, shortened: as §1
# [16] = biological target: Gal(b1-4)GlcNAc(b1-6)[Gal(b1-3)]GalNAc
# Procedure, shortened: as §1
# [17] = biological target: Gal(b1-4)GlcNAc(b1-6)[Gal(b1-4)GlcNAc(b1-3)]GalNAc
# Procedure, shortened: as §1
# Gal(b1-4)GlcNAc6P = biological target: Gal(b1-4)GlcNAc6P
# Procedure, shortened: as §1
# Gal(b1-6)Gal = biological target: Gal(b1-6)Gal
# Procedure, shortened: as §1
# Gal3S(b1-3)GalNAc = biological target: Gal3S(b1-3)GalNAc
# Procedure, shortened: as §1
# Gal3S(b1-3)GlcNAc = biological target: Gal3S(b1-3)GlcNAc
# Procedure, shortened: as §1
# [18] = biological target: Gal3S(b1-3)[Fuc(a1-4)]GlcNAc
# Procedure, shortened: as §1
# Gal3S(b1-4)Glc = biological target: Gal3S(b1-4)Glc
# Procedure, shortened: as §1
binder,measurement,setting,value
HFR-3 (Triticum aestivum) (protein) MKGLLLCALALAFAAVTTHAQLQSCPTRCGKQADGMECPNNLCCSKDGYCGLGVDYCSAGAGCQSGACYDNKICGAQANGTLCRNNHCCSSGGRCGYGREYCSNGCQGGPCWADLKCGHLDNGKLCPNNLCCSQYGYCGLGPEFCGTGCQNGACSTDKPCGNKANGAPCTNNYCCSQYGSCGLGKDYCGTGCQNGACN,glycan array binding signal (z-score),[1],-0.012
same,glycan array binding signal (z-score),[2],0.374
same,glycan array binding signal (z-score),[3],0.11
same,glycan array binding signal (z-score),[4],0.356
same,glycan array binding signal (z-score),[5],0.492
same,glycan array binding signal (z-score),[6],0.2
same,glycan array binding signal (z-score),[7],0.425
same,glycan array binding signal (z-score),[8],0.491
same,glycan array binding signal (z-score),[9],0.122
same,glycan array binding signal (z-score),[10],0.237
same,glycan array binding signal (z-score),[11],-0.324
same,glycan array binding signal (z-score),[12],-0.232
same,glycan array binding signal (z-score),[13],-0.381
same,glycan array binding signal (z-score),[14],-0.737
same,glycan array binding signal (z-score),[15],-0.958
same,glycan array binding signal (z-score),[16],-1.15
same,glycan array binding signal (z-score),[17],0.231
same,glycan array binding signal (z-score),Gal(b1-4)GlcNAc6P,0.048
same,glycan array binding signal (z-score),Gal(b1-6)Gal,-0.638
same,glycan array binding signal (z-score),Gal3S(b1-3)GalNAc,1.67
same,glycan array binding signal (z-score),Gal3S(b1-3)GlcNAc,-0.244
same,glycan array binding signal (z-score),[18],1.1
same,glycan array binding signal (z-score),Gal3S(b1-4)Glc,1.09

# 2 entries from above, bar-delimited.
binder | measurement | setting | value
HFR-3 (Triticum aestivum) (protein) MKGLLLCALALAFAAVTTHAQLQSCPTRCGKQADGMECPNNLCCSKDGYCGLGVDYCSAGAGCQSGACYDNKICGAQANGTLCRNNHCCSSGGRCGYGREYCSNGCQGGPCWADLKCGHLDNGKLCPNNLCCSQYGYCGLGPEFCGTGCQNGACSTDKPCGNKANGAPCTNNYCCSQYGSCGLGKDYCGTGCQNGACN | glycan array binding signal (z-score) | [8] | 0.491
same | glycan array binding signal (z-score) | [9] | 0.122

# Reference: the supplement of paper PMC8728848
